# Results of single-concentration screens

Measurements from “University of Dundee, Small-Polar-MMV Screening Library” (2021), ChEMBL document CHEMBL3988442.

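Whole-parasite assay of Trypanosoma brucei over 72 hours; the read-out is not stated. Concentration: 30 µM. The record gives no direction; compounds that gave an IC50 in retests scored well above the rest, so higher reads as stronger inhibition. Values scatter widely below zero; nearly all retest evidence comes from the higher of the two concentrations used. Of about 64,000 compounds tested this way, about 940 (1.5%) reached 50% or more in at least one test.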

Results are given as percent effect. The controls that fix the scale are not given in the record; negative values are as filed. This is an unselected part of the compounds tested.

compound	Percent Effect
O=C(NCc1cccc2cccnc12)N1CCC(n2cncn2)CC1	47.37%
Cc1cc(NC(=O)N(C)C2CCN(c3ccccc3F)C2=O)n(C)n1 (stereo not drawn)	-47.53%
Cc1cc(C[S+]([O-])Cc2ccccc2F)on1 (stereo not drawn)	-88.62%
Cc1cc(-c2nccs2)nc(C2CCN(Cc3cccs3)CC2)n1	-2.671%
CCCN(Cc1cccnc1)C(=O)C1CCS(=O)(=O)CC1	-22.19%
Cc1cnc(CNC(=O)NCCOc2ncccc2Cl)s1	-24.02%
CN(CC(=O)Nc1ccc(Br)cn1)C(=O)Cc1ccc(O)cc1	-5.157%
O=C(CCc1cccc(Cl)c1)NS(=O)(=O)Cc1ccon1	-19.7%
Cc1ccc(OC2(C(=O)O)CCN(C(=O)c3cccc(F)c3)CC2)cn1	-20.17%
O=C(COc1cccc2c1CCC2=O)NCCc1cccs1	-12.33%
Cc1cc(CNCCNS(C)(=O)=O)sc1Br	-36.33%
CC(C)CN1CC(C(=O)N(C)CCc2cn[nH]c2)CC1=O (stereo not drawn)	-4.278%
Cc1nccn1C1CCCN(C(=O)c2ccc3c(c2)NC(=O)CO3)C1 (stereo not drawn)	41.42%
NC(=O)COc1cccc(Cn2cc(Br)cn2)c1	-49.98%
CCCN(CC)C(=O)c1cc(Cn2c(C)nc3ccccc32)[nH]n1	-4.81%
O=C(O)C(F)(F)F.[H][C@@]12C[C@@H](OCC)CN1CCN(S(=O)(=O)c1cccs1)C2	-10.21%
Cc1cc(Cl)ccc1S(=O)(=O)NCC(C)N1CCN(C)CC1 (stereo not drawn)	-12.36%
CCN1N=C(C(=O)N2CCCC(c3nc(C)cs3)C2)CCC1=O (stereo not drawn)	-15.61%
CCOc1ccccc1OC1CCN(C(=O)c2cnsn2)CC1	-4.974%
Cc1nc(C2CCCN(C(=O)c3scnc3C)C2)no1 (stereo not drawn)	-36.79%
CCS(=O)(=O)N1CCC(OCCCc2ccccc2)C1 (stereo not drawn)	-19.84%
CCCc1nnc(N2CCN(Cc3ccccc3OC)CC2)o1	-39.7%
O=C(O)C(F)(F)F.O=C(O)C(F)(F)F.[H][C@@]12CCCO[C@]1([H])[C@H](N(C)C(C)C)CN(Cc1csc(C)n1)C2	-28.26%
CNC(=O)c1cn[nH]c1C1CCN(Cc2ccccc2F)C1 (stereo not drawn)	-2.839%
CCOC(=O)C1(O)CCN(C(=O)Nc2cccc(F)c2)CC1	5.544%
COc1ccc(NC(C)c2nnnn2-c2ccccc2)cn1 (stereo not drawn)	-23.09%
CCOCC(=O)N1CCC(c2nc(-c3cccnn3)no2)CC1	-34.88%
CC(Cc1ccccc1F)C(=O)Nc1ccc(OCCC(N)=O)cc1 (stereo not drawn)	11.84%
CC(Cn1cccn1)NCc1csc(-c2ccccc2)n1 (stereo not drawn)	5.009%
CN(C)c1ccccc1C(=O)N1CCCC(c2ccc(C(=O)O)cc2)C1 (stereo not drawn)	-27.58%
CC(C)C(=O)NCc1ccc(N2CCCC2)nc1	-20.53%
CN(CC1(CO)CCCC1)c1nc2c(c(=O)[nH]1)Cc1ccccc1OC2	-11.26%
Cc1nn(C)c2c(N3CCC(C)CC3)nc(C3CC3)nc12	-2.202%
Cc1ccc(S(=O)(=O)N2CCC(S(=O)(=O)c3nncn3C)CC2)cc1C	-15.11%
Cc1ncccc1C(=O)N1CCC2(CCc3ccccc3C(=O)N2)C1 (stereo not drawn)	-17.66%
CNC(=O)CCc1cc(C)nc(C2CCCN2)n1 (stereo not drawn)	10.5%
CNc1cc(N2CCC(O)(CNC(=O)c3ccc(C)nc3)C2)ncn1 (stereo not drawn)	14.04%
[H][C@@]12COC[C@@H](Cc3nc(C)no3)[C@]1([H])CN(C(=O)C1=CCCC1)C2	-63.63%
Cc1cc(C)n(CCCNc2ncnc3c2NC(=O)CN3)n1	-4.753%
O=C(c1csc(-c2cccs2)n1)N1CCCC1Cn1cccn1 (stereo not drawn)	-16.91%
CN(Cc1nnc(C2CC2)n1C)C1CCN(Cc2ccncc2)C1 (stereo not drawn)	-3.707%
CCC(C)c1noc(C2CCN(C(=O)Cn3nc(C)cc3C)CC2)n1 (stereo not drawn)	-24.95%
CN(C)CC(=O)N1CCc2ncnc(-c3ccsc3)c2CC1	-28.81%
CCOCC1CN(S(=O)(=O)C2CC2)Cc2cnn(C)c21 (stereo not drawn)	-6.245%
Cc1ccc(OCCN(C)C(=O)CCCN2CCCC2=O)c(C)c1	16.23%
Cl.O=C(Nc1ccc(F)cc1)C(c1ccccc1)N1CCOCC1 (stereo not drawn)	30.83%
CC(=O)N1CCC(Oc2ccc(C#N)cn2)CC1	-56.62%

The last 6 entries again:

* CCC(C)c1noc(C2CCN(C(=O)Cn3nc(C)cc3C)CC2)n1 (stereo not drawn) : -24.95%
* CN(C)CC(=O)N1CCc2ncnc(-c3ccsc3)c2CC1 : -28.81%
* CCOCC1CN(S(=O)(=O)C2CC2)Cc2cnn(C)c21 (stereo not drawn) : -6.245%
* Cc1ccc(OCCN(C)C(=O)CCCN2CCCC2=O)c(C)c1 : 16.23%
* Cl.O=C(Nc1ccc(F)cc1)C(c1ccccc1)N1CCOCC1 (stereo not drawn) : 30.83%
* CC(=O)N1CCC(Oc2ccc(C#N)cn2)CC1 : -56.62%